Our source for the binding values is paper PMC10786907.

These are yes or no findings as the source states them, for the method shown. Binding seen in cells or lysates may run through a third protein. For some assays here: A result given as binding can be weak or reduced; the word gives no strength. For some assays here: Sequences can lack the tags named with a protein.

For one assay, the target named is T1, Flag-FBXO31 (UniProt Q5XUX0).
T1 sequence: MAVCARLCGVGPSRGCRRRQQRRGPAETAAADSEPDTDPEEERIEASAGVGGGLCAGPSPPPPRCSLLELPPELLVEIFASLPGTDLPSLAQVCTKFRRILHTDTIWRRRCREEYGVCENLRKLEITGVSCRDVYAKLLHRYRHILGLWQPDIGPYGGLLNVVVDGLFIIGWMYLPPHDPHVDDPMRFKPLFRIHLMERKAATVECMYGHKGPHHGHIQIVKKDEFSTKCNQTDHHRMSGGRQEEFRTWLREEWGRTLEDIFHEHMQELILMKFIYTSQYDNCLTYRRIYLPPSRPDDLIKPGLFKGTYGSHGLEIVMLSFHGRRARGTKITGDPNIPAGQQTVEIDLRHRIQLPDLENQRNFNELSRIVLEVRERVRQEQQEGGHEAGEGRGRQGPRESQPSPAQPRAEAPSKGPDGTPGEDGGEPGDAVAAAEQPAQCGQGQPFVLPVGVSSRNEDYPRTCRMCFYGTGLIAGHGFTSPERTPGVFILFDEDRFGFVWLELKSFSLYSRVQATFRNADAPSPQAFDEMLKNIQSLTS
The assay can be described thus: co-IP; transfected cells (293T, Panc-1, PaTu-8988, SW1990) treated with 10 μM MG132 for 6 h; NP40 lysate; HA or Flag magnetic beads; washed 3 times with TBST; western blotting. (Immunoblotting shows a protein as a band on a membrane.)

A further assay has as its target FBXO31 ΔF-box (UniProt Q5XUX0). The assay is described as above.

With SIRT2 Δ-sirtuin (from UniProt Q8IXJ6), in the assay with Flag-FBXO31, the binding entry was “no binding”.

B1: SIRT2 (protein, UniProt Q8IXJ6 1-389)
chain: MAEPDPSHPLETQAGKVQEAQDSDSDSEGGAAGGEADMDFLRNLFSQTLSLGSQKERLLDELTLEGVARYMQSERCRRVICLVGAGISTSAGIPDFRSPSTGLYDNLEKYHLPYPEAIFEISYFKKHPEPFFALAKELYPGQFKPTICHYFMRLLKDKGLLLRCYTQNIDTLERIAGLEQEDLVEAHGTFYTSHCVSASCRHEYPLSWMKEKIFSEVTPKCEDCQSLVKPDIVFFGESLPARFFSCMQSDFLKVDLLLVMGTSLQVQPFASLISKAPLSTPRLLINKEKAGQSDPFLGMIMGLGGGMDFDSKKAYRDVAWLGECDQGCLALAELLGWKKELEDLVRREHASIDAQSGAGVPNPSTSASPKKSPPPAKDEARTTEREKPQ
Consider B1, for which the binding result with FBXO31 ΔF-box is “binds”.
